Drawing on paper PMC7417480, this text covers binding for 2 substances.

Amino acid sequences for entries named in this document (tags omitted).
UniProt P0DMV8: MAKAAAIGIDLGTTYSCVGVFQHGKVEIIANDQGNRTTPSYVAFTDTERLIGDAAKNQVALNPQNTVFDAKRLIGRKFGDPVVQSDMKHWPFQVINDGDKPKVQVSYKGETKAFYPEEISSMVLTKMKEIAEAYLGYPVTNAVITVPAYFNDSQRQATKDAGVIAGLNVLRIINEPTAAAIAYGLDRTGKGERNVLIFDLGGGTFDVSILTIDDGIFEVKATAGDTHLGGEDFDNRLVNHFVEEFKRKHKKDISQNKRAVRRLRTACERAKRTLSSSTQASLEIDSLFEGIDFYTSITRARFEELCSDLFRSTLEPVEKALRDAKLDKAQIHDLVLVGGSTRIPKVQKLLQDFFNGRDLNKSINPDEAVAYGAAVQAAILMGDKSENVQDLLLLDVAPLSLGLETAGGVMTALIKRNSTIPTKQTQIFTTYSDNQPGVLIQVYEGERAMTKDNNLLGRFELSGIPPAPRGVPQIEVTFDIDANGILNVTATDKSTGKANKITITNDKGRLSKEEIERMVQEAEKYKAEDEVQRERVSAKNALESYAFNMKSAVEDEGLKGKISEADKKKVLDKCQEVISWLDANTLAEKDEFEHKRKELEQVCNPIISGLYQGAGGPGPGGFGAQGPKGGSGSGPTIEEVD

No constants are given. Whether binding was seen depends on the method and setting. In cells and extracts the contact can be indirect. Here binding means that the protein was enriched with, or labelled near, the bait; the list need not be complete. Sequences can lack the tags named with a protein.

The target in the test is T1, GFP-BAG5 (UniProt Q9UL15).
T1 sequence: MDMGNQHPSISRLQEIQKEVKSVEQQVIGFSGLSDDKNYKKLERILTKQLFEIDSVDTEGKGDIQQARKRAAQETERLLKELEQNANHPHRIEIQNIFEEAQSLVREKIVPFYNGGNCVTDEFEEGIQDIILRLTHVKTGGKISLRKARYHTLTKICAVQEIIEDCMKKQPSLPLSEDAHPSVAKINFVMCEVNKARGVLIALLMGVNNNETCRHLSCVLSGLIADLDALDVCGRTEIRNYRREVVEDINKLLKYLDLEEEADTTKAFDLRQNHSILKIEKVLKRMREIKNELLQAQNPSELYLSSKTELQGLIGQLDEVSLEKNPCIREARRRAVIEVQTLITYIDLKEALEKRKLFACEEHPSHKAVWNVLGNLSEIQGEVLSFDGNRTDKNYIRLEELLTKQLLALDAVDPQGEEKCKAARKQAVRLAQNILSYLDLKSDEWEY
The experiment in a line: affinity purification with mass spectrometry; GFP-trap beads with 1 mg lysate (RIPA buffer) of H4 lines stably expressing GFP, GFP-BAG5 or GFP-BAG5_(DARA), 2 h at 4°C, three RIPA washes, LTQ-Orbitrap MS.

For HSPA1A (from UniProt P0DMV8 1-641), the binding result is reported as “binds”. In the case of p62 (from UniProt Q13501 1-440), the binding entry is “binds”.
